Laboratory results from article doi:10.1101/2021.08.06.455464.
These are yes or no findings as the source states them, for the method shown. In cells and extracts the contact can be indirect. These calls come from enrichment with a bait or labelling near it, and not all partners need be listed.

Protein sequences, listed by entry. Tags and fused reporters are not part of them. Lines headed by an entry give the natural chain unless they say otherwise; changes in a name come on top.
UniProt Q13283, whole entry, stated change not applied: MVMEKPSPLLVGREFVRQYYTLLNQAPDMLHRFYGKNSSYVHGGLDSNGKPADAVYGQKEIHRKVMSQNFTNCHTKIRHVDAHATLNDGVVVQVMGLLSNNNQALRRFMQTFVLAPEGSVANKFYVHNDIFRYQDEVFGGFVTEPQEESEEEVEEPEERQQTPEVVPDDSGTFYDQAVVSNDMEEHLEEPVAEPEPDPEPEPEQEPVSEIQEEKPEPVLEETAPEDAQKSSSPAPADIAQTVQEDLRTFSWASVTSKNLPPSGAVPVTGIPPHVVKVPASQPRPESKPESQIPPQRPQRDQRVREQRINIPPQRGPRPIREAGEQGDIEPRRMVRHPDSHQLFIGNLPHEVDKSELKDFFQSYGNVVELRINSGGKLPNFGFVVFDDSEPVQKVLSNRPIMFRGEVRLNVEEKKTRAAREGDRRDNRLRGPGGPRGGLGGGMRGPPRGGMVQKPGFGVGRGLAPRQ

Target: GFP-G3BP1 (Ras-GTPase activating SH3 domain binding protein 1) (UniProt Q13283)
Assay: affinity purification with mass spectrometry

Substance	binding
DDX21 (from UniProt Q9NR30 1-783)	binds
ELAVL1 (from UniProt Q15717 1-326)	binds
SRSF2 (from UniProt Q01130 1-221)	binds
